Source: PubChem BioAssay AID743454 (Peter MacCallum Cancer Centre, 2014)
The whole screen tested about 18,000 reagents; below is a random part of them. 450 of all reagents (2.5%) were called active. 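Single biological run; no consistent viability z cut-off exists, so the class columns, not z-scores, define the calls.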

Purpose: 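Genes whose loss kills vorinostat-resistant colon cancer cells under vorinostat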 (primary screen)
System: human HCT116-VR colon cancer cells, selected for vorinostat resistance
Knock-down reagent: siRNA pool against human genes, 40 nM siRNA pool
Time to read-out: vorinostat for 24 h, read-out about 72 h after transfection
Conditions: vorinostat at 2.5 µM final
Read-out: 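Two measures, CellTiter-Fluor viability and luminescent caspase 3/7 activity, each as fold change against same-plate mock wells, mean of duplicates, then screen-wide robust z-score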
Direction: viability robust z-score: higher = more viable cells than screen typical; caspase robust z-score: higher = more caspase 3/7 activity than screen typical
Hit rule: 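a knock-down is a hit when classed RV1 or RV2 for lowered viability, or CA1 or CA2 for caspase activation; those lethal without drug were dropped; hits were retested singly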

target	viability hit class	caspase hit class	viability robust z-score	caspase robust z-score	Outcome
RHOH	no change	no change	0.9	-0.62	inactive
DDX5	no change	no change	-0.29	-0.19	inactive
CSN1S1	no change	no change	-0.68	0.7	inactive
ZNF497	no change	CA1 (caspase activation)	0.23	5.82	active
REM1	no change	no change	0.7	0.38	inactive
SMCO3	no change	no change	0.12	0.88	inactive
NIBAN1	no change	no change	-0.12	0.46	inactive
UHRF2	no change	no change	-0.54	3.72	inactive
TFPI2	no change	no change	0.2	-0.84	inactive
FXYD5	no change	no change	0.73	3.26	inactive
RMND5A	no change	no change	-0.77	-1.13	inactive
SPINT2	no change	CA1 (caspase activation)	-1.36	6.08	active
FPGS	no change	no change	-0.71	3.72	inactive
LRRC73	no change	no change	0.6	-0.75	inactive
FGF3	no change	no change	0.35	0.37	inactive
SPINT1	no change	no change	-1.25	2.49	inactive
AGPS	no change	no change	-1.25	-0.06	inactive
HADHA	no change	no change	-0.19	-0.33	inactive
SDCBP2	no change	no change	-2.29	-0.91	inactive
KRTAP19-2	no change	no change	-0.06	-0.21	inactive
GAS7	no change	no change	0.08	-0.54	inactive
KCTD14	no change	no change	-1.08	2.01	inactive
MTURN	no change	no change	0.34	-0.04	inactive
LINC02913	no change	no change	0.57	-0.39	inactive
PHETA2	no change	no change	-0.68	1.64	inactive
FEZF1	no change	no change	-1.77	0.2	inactive
HTR2B	no change	no change	0.83	-0.19	inactive
CIB2	no change	no change	-0.84	-0.36	inactive
PTP4A2	no change	no change	0.02	1.29	inactive
ARMC2	no change	no change	-0.8	0.46	inactive
ROPN1L	no change	no change	1.1	-1.06	inactive
CASP14	no change	no change	0.16	1.78	inactive
AGAP7P	no change	no change	-0.09	-0.58	inactive
PDE3B	no change	no change	-0.45	0.76	inactive
FKRP	no change	no change	0.76	2.84	inactive
SYNGR2	no change	no change	-0.48	0.2	inactive
NPAS3	no change	no change	0.04	-0.46	inactive
PSMC5	no change	no change	-4.81	1.5	inactive
FGL1	no change	no change	-0.74	0.7	inactive
TOMM40L	no change	no change	-0.51	-0.79	inactive
SFT2D1	no change	no change	0.26	-0.64	inactive
RAC2	no change	no change	-1.81	-0.2	inactive
CDH20	no change	no change	-0.2	0.24	inactive
CXorf38	no change	no change	0.43	-0.4	inactive
PCP4	RV2 (reduced viability)	no change	-4.25	2.95	active
NBPF10	no change	no change	-0.04	-0.1	inactive
CD99L2	no change	no change	-0.55	0.34	inactive
RAD54L	no change	no change	0.03	-0.41	inactive
KCNAB2	no change	no change	-0.94	-0.02	inactive
RIMKLB	no change	no change	1.18	-0.92	inactive
SNRNP35	no change	no change	-1.42	0.83	inactive
GLUL	no change	no change	1.62	0.84	inactive
ESPL1	no change	no change	-1.24	3.05	inactive
CCDC102A	no change	no change	-0.41	1.46	inactive
TRIM32	no change	no change	-0.78	4.48	inactive
NDUFA5	no change	no change	-1.15	0.36	inactive
NCBP2	no change	no change	-1.88	-0.9	inactive

Ordered by “viability robust z-score” (ascending): 3 of the entries above.
target	viability hit class	caspase hit class	viability robust z-score	caspase robust z-score	Outcome
KCTD14	no change	no change	-1.08	2.01	inactive
KRTAP19-2	no change	no change	-0.06	-0.21	inactive
GAS7	no change	no change	0.08	-0.54	inactive
